Experimental data: PubChem BioAssay AID1508597 (Cure First, 2020)
This is a random part of the about 2,100 reagents, in one setting of the screen. 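Calls flag viability under 80% in either arm, not effects specific to rucaparib; the reference for percent is not stated.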 Unmarked entries are inactive. Some reagents were tested in more than one well and are listed for each. Not stated in the record: the 100% reference.

Screen: 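Survival screen with siRNA in ovarian cancer cells derived from patients, with or without rucaparib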 (primary screen)
System: human ovarian carcinoma lines grown from tumours: OCI-P5x (papillary serous) and OCI-C5x (clear cell)
Reagents: siRNA pool against human genes, 1.25 pmol siRNA per well
Time to read-out: 72 h or 96 h, depending on the cell culture
Conditions: rucaparib 20 µM (about IC30) or vehicle, present until read-out
Rucaparib or vehicle: Vehicle
Cell line: OCI-P5x (serous)
Measured: 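ATP luminescence measured at 72 or 96 h according to the culture, then normalised and expressed as percent viability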
Reading the numbers: viability, normalised: higher = more viable cells remaining
Active means: 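a well counts as a hit if its normalised viability is under 80 percent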
Calls: active = viability under 80%; inactive = viability 80% or more

The opening 2 records, ahead of the listing:
NME1-NME2 (GeneID 654364), technical replicate 1
- viability, normalised (%): 89.5

NME1-NME2 (GeneID 654364), technical replicate 2
- viability, normalised (%): 100

The listing, from the first entry:
NME1-NME2 (GeneID 654364), technical replicate 1
- viability, normalised (%): 89.5

NME1-NME2 (GeneID 654364), technical replicate 2
- viability, normalised (%): 100

NME1-NME2 (GeneID 654364), technical replicate 3
- viability, normalised (%): 95.9

TESK2 (GeneID 10420), technical replicate 1
- viability, normalised (%): 71.9 (active)

TESK2 (GeneID 10420), technical replicate 2
- viability, normalised (%): 91.2

TESK2 (GeneID 10420), technical replicate 3
- viability, normalised (%): 58.6 (active)

GK2 (GeneID 2712), technical replicate 1
- viability, normalised (%): 59.4 (active)

GK2 (GeneID 2712), technical replicate 2
- viability, normalised (%): 57.8 (active)

GK2 (GeneID 2712), technical replicate 3
- viability, normalised (%): 65.8 (active)

KMT2E (GeneID 55904), technical replicate 1
- viability, normalised (%): 68.3 (active)

KMT2E (GeneID 55904), technical replicate 2
- viability, normalised (%): 89.7

KMT2E (GeneID 55904), technical replicate 3
- viability, normalised (%): 85.2

CHTOP (GeneID 26097), technical replicate 1
- viability, normalised (%): 63.3 (active)

CHTOP (GeneID 26097), technical replicate 2
- viability, normalised (%): 68.3 (active)

CHTOP (GeneID 26097), technical replicate 3
- viability, normalised (%): 65.9 (active)

PLCD3 (GeneID 113026), technical replicate 1
- viability, normalised (%): 78.4 (active)

PLCD3 (GeneID 113026), technical replicate 2
- viability, normalised (%): 75 (active)

PLCD3 (GeneID 113026), technical replicate 3
- viability, normalised (%): 90.2

EYA4 (GeneID 2070), technical replicate 1
- viability, normalised (%): 61.1 (active)

EYA4 (GeneID 2070), technical replicate 2
- viability, normalised (%): 70.8 (active)

EYA4 (GeneID 2070), technical replicate 3
- viability, normalised (%): 70.3 (active)

NAP1L3 (GeneID 4675), technical replicate 1
- viability, normalised (%): 47.6 (active)

NAP1L3 (GeneID 4675), technical replicate 2
- viability, normalised (%): 45.8 (active)

NAP1L3 (GeneID 4675), technical replicate 3
- viability, normalised (%): 47.9 (active)

TF (GeneID 7018), technical replicate 1
- viability, normalised (%): 112

TF (GeneID 7018), technical replicate 2
- viability, normalised (%): 127

TF (GeneID 7018), technical replicate 3
- viability, normalised (%): 129

PLCE1 (GeneID 51196), technical replicate 1
- viability, normalised (%): 54.9 (active)

PLCE1 (GeneID 51196), technical replicate 2
- viability, normalised (%): 60.3 (active)

PLCE1 (GeneID 51196), technical replicate 3
- viability, normalised (%): 62.8 (active)

TRRAP (GeneID 8295), technical replicate 1
- viability, normalised (%): 67.9 (active)

TRRAP (GeneID 8295), technical replicate 1
- viability, normalised (%): 84.6

TRRAP (GeneID 8295), technical replicate 1
- viability, normalised (%): 55.8 (active)

TRRAP (GeneID 8295), technical replicate 2
- viability, normalised (%): 60.9 (active)

TRRAP (GeneID 8295), technical replicate 2
- viability, normalised (%): 57.6 (active)

TRRAP (GeneID 8295), technical replicate 2
- viability, normalised (%): 82.2

TRRAP (GeneID 8295), technical replicate 3
- viability, normalised (%): 59.5 (active)

TRRAP (GeneID 8295), technical replicate 3
- viability, normalised (%): 84.1

TRRAP (GeneID 8295), technical replicate 3
- viability, normalised (%): 86.1
